The results in this text go back to US9668993B2, “Non-steroidal anti-inflammatory drug dosing regimen” (Johnson & Johnson Consumer Inc., priority 2003, dated 2017).

This data set can be described thus: typical duration of action of an immediate release dose (from product labeling). Type of data set: in vivo.

For `CC(C)Cc1ccc(C(C)C(=O)O)cc1` (stereo not drawn) [ibuprofen, 2-(4-isobutylphenyl)-propionic acid], the “ATDAIRD (average therapeutic duration of action of an effective immediate release dose)” value (from here on “ATDAIRD”) came to 5 h.

With `CC(C(=O)O)c1cccc(C(=O)c2ccccc2)c1` (stereo not drawn) [ketoprofen], the “ATDAIRD” value was found to be 5 h.

On to `COc1ccc2cc([C@H](C)C(=O)O)ccc2c1` [naproxen], for which the “ATDAIRD” value came to 10 h.
